# In US20240116990A1 (Mayo Foundation for Medical Education and Research, priority 2022, published 2024):
# Where a sequence shows no end group, the ends are not given.
# Experiment: peptide made by a vendor
# Settings: whole synthesis, acetate salt, one disulfide bridge, sequence written open
sequence,measurement,value
RALLTAPRSLRRSSCFGHKIDRINHVSNLGCNSFRYRITAREDKQGWA,final HPLC purity,97.9%
